Test results: patent publication US20120088827A1 (Profectus Biosciences, Inc., priority 2009, published 2012)
Some results were stated once for a whole list of compounds, not compound by compound.

What was measured:
[1] = system: NF-κB driven transcription (pTRH1-NF-κB-dscGFP reporter, 293 cells); assay: NF-kB/293/GFP reporter cell assay; assay type: cell-based; settings: 0, 0.2, 1, 10, 20 and 40 μM; TNF-α induced
Procedure: (§1) Two reporter cell assays were used to determine the ability of the compounds of Examples 1-12 to inhibit NF-κB driven transcription. The first assay was a 293-cell based assay with a stably integrated pNF-κB-luc reporter plasmid containing 3 NF-κB promoter elements. The second assay was a 293-cell based assay with a stably integrated pTRH1-NF-κB-dscGFP reporter containing 4 NF-κB promoter elements. Cells were treated with 0, 0.2, 1, 10, 20 and 40 μM of the compounds of Example 1-12 for 2 hours then were induced with 20 ng/ml TNF-α for 18 hours. Following the induction, luminescence or fluorescence was quantified using a Beckman-Coulter 2300 plate reader. […] As a control, 0.5% DMSO treated and untreated cells were compared to verify that the compounds of Examples 1-12 had no effect on the expression of luciferase or in the readout of the assay. There was a slight decrease in the output from the assay in the DMSO treated population although it was not statistically significant. As a result of the controls, the decrease in activity in the drug treated samples was compared to the DMSO control sample.

[2] = system: NF-κB driven transcription (pNF-κB-luc reporter, 293 cells); assay: 293/NF-kB-luc reporter cell assay; assay type: cell-based; settings: for inhibition of expression of the luciferase gene: 0, 0.2, 1, 10, 20 and 40 μM, TNF-α induced
Procedure: as §1

Compound: CCOP(=O)(OCC)Oc1ccccc1C(=O)NC1=CC(=O)C2OC2C1O (racemic) [Example 10, (±)-diethyl 2-(2-hydroxy-5-oxo-7-oxabicyclo[4.1.0]hept-3-en-3-ylcarbamoyl)phenyl phosphate]
- inhibition of expression of the Green fluorescent protein gene [1]: inhibited the expression of the Green fluorescent protein gene in a dose dependent manner
- inhibition of expression of the luciferase gene [2]: inhibit the expression of the luciferase gene in a dose dependent manner
- inhibition of NF-κB signal transduction pathways in cells [2]: observed to inhibit NF-κB signal transduction pathways in cells

Compound: CC(C)OC(=O)OC1C(NC(=O)c2ccccc2O)=CC(=O)C2OC21 (racemic) [Example 8]
- inhibition of expression of the Green fluorescent protein gene [1]: inhibited the expression of the Green fluorescent protein gene in a dose dependent manner
- inhibition of expression of the luciferase gene [2]: inhibit the expression of the luciferase gene in a dose dependent manner
- inhibition of NF-κB signal transduction pathways in cells [2]: observed to inhibit NF-κB signal transduction pathways in cells

Compound: O=C(NC1=CC(=O)C2OC2C1O)c1ccccc1OP(=O)(OCc1ccccc1)OCc1ccccc1 (racemic) [Example 12, (±)-dibenzyl 2-(2-hydroxy-5-oxo-7-oxabicyclo[4.1.0]hept-3-en-3-ylcarbamoyl)phenyl phosphate]
- inhibition of expression of the Green fluorescent protein gene [1]: inhibited the expression of the Green fluorescent protein gene in a dose dependent manner
- inhibition of expression of the luciferase gene [2]: inhibit the expression of the luciferase gene in a dose dependent manner
- inhibition of NF-κB signal transduction pathways in cells [2]: observed to inhibit NF-κB signal transduction pathways in cells
